Assay results: PubChem BioAssay AID2551 (National Center for Advancing Translational Sciences (NCATS), 2010)
In all, about 310,000 compounds went through this assay and about 17,000 (5.5%) were called active. This list was built around the results that the source calls inconclusive (neither active nor inactive); the mix of calls is not that of the screen. The call rests on the fitted dose curve; in most records, active means well fitted inhibition curve with a large enough effect; inconclusive means small, poorly fitted or top-dose-only effect, or effect the other way; inactive means no such curve, though single readings can be large or run the other way. Potencies beside an inconclusive call are fits to weak or partial responses and may not hold up.

By UniProt entry, the sequences of proteins in these tests, tags left out. Where a name states a change or a piece, a line headed by the entry shows the natural chain unless it says otherwise.
UniProt P51450: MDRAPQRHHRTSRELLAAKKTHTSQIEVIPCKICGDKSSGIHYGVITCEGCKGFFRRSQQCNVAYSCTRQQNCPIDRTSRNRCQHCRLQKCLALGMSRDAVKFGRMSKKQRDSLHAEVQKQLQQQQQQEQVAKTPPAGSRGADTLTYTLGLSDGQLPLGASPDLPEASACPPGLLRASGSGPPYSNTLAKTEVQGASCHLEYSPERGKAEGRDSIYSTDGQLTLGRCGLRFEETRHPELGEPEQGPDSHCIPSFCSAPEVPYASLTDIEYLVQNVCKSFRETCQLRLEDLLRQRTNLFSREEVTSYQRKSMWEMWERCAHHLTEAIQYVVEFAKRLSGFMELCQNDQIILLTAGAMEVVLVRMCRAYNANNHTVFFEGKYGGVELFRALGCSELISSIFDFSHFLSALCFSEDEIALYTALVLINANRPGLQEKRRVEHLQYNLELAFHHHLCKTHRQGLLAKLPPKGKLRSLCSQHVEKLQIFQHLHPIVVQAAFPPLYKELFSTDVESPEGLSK

molecular target: Nuclear receptor ROR-gamma (Mus musculus) (UniProt P51450); assay: qHTS for inhibitors of ROR gamma transcriptional activity; conditions: Drosophila S2 Gal4-RORgamma UAS-luciferase reporter, 20 h; activity change, negative = inhibition: at 53.6 µM (top of the series); further: nearly all actives have a fitted effect of over 60% in size
Summary of the method: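 A Gal4/UAS one-hybrid system in insect cells: metallothionein-promoter Gal4–ROR gamma fusion plus Photinus luciferase reporter. Copper sulfate 700 uM final, 20 hr ambient incubation, luminescent detection after 10 min with reagent.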
On the % scale 0 is the no-effect control and ±100 the full control effect; potency means the concentration at half of the fitted maximal effect.

Potency, inconclusive:
CCCc1cc(O)c2c(C)cc(=O)oc2c1 35.5 µM [activator, single point]
COc1cc(NC(=O)c2cccnc2Sc2ccc(Cl)cc2)cc(OC)c1OC 8.91 µM [activator, partial curve]
CC1(C)Cc2nc3oc4c(=S)nc[nH]c4c3cc2CO1 35.5 µM [inhibitor, single point]
O=C1CC(N2CCN(Cc3ccc(Cl)cc3)CC2)C(=O)N1CCc1ccccc1 (stereo not drawn) 31.6 µM [activator, single point]
CC(C)CSC1=NSC2=NC(=O)/C(=C\c3cccs3)C(=N)N12 31.6 µM [activator, single point]
Cc1ccc(S(=O)(=O)/C(=C/Cl)NC(=O)c2ccccc2)cc1 25.1 µM [inhibitor, single point]
COc1ccc(C2C(C(=O)O)CC(=O)N2C2CCCCC2)cc1 (stereo not drawn) 5.62 µM [inhibitor, single point]
O=C(CN(Cc1ccc(F)cc1)C(=O)c1csnn1)NCc1ccccc1 0.0708 µM [activator, full curve, poor fit]
CC(C)C(=O)Nc1cccc(-c2csc(-c3ccccc3)n2)c1 1.58 µM [activator, partial curve]
CCOc1cc(/C=C2\C(=N)N3N=C(N4CCCCC4)SC3=NC2=O)ccc1OC(=O)c1ccco1 35.5 µM [inhibitor, single point]
COc1ccc(C2c3[nH]c4ccccc4c3CCN2C(=O)c2cc3ncccn3n2)c(F)c1 (stereo not drawn) 31.6 µM [activator, single point]
Nc1cc(-c2ccc(Br)cc2)nn1Cc1ccccc1 12.6 µM [activator, partial curve]
CCc1ccc(S(=O)(=O)N2CCN(Cc3ccco3)CC2)cc1 22.4 µM [activator, single point]
O=C(CSc1nnc(NC2CCCCC2)s1)Nc1ccc2c(c1)C(=O)c1ccccc1C2=O 12.6 µM [inhibitor, single point]
O=C(c1ccc(Oc2ccccc2)cc1)c1nc2c(n1O)CCCC2 35.5 µM [inhibitor, single point]
O=C(OCC1OC(n2cnc3c(N(C(=O)c4ccccc4)C(=O)c4ccccc4)ncnc32)C(O)C1F)c1ccccc1 (stereo not drawn) 22.4 µM [inhibitor, single point]
COC(=O)[C@@H]1CC[C@H](C)[C@@H](c2ccc(C)cc2)N1C(=O)c1ccc(/C=N/OC[C@@H](O)COCc2ccco2)cc1 15.8 µM [activator, single point]
CC1Cc2cc(S(=O)(=O)NCCc3ccccc3)ccc2N1C(=O)C1CC1 (stereo not drawn) 11.2 µM [activator, partial curve]
COc1cccc(-c2ccc(NC(=O)C3CCCN(CCCn4nc(C)cc4C)C3)cc2)c1 (stereo not drawn) 11.2 µM [inhibitor, partial curve]
CC1CC(C)CN(c2oc(-c3ccco3)nc2C#N)C1 (stereo not drawn) 0.112 µM [activator, full curve]
N/C(=N\OC(=O)c1ccc(Br)cc1)c1ccccc1 20 µM [inhibitor, single point]
CC(Sc1ccccc1)C(=O)NN=C1CCN(C)CC1 (stereo not drawn) 22.4 µM [inhibitor, single point]
CCNC(=S)NNC(=O)c1ccncc1 11.2 µM [inhibitor, single point]
Cc1ccc(-c2nn(-c3ccccc3)cc2C(=O)N2CCOCC2)cc1C 35.5 µM [activator, single point]
CCC(C)(C)NC(=O)CN(C(=O)CCC(=O)Nc1nccs1)c1ccccc1C 12.6 µM [activator, partial curve]

Molecules shown so far that have a Cl atom:
Potency, inconclusive:
COc1cc(NC(=O)c2cccnc2Sc2ccc(Cl)cc2)cc(OC)c1OC 8.91 µM [activator, partial curve]
O=C1CC(N2CCN(Cc3ccc(Cl)cc3)CC2)C(=O)N1CCc1ccccc1 (stereo not drawn) 31.6 µM [activator, single point]
Cc1ccc(S(=O)(=O)/C(=C/Cl)NC(=O)c2ccccc2)cc1 25.1 µM [inhibitor, single point]

Next part.

Potency, inactive:
O=C(O)CCCn1cc(NC(=O)c2cc(F)c(F)cc2Cl)cn1
CC(C)CCC[C@@H](C)[C@@H]1CC[C@H]2C3=CC=C4CC(O)CC[C@]4(C)[C@H]3CC[C@@]21C (stereo partly drawn)
Cc1ccc(CC(=O)Nc2ccc(S(=O)(=O)N3CCOCC3)cc2)cc1
O=C(C1COc2ccccc2O1)N1CCc2ccccc21 (stereo not drawn)
O=C(CCNC(=O)C1CCN(S(=O)(=O)c2ccc(F)cc2)CC1)NCCc1ccc(Cl)cc1
CN(CC(=O)NC1CCCCCCC1)S(=O)(=O)c1cnc[nH]1
Cc1ccc(S(=O)(=O)N2CCN(Cc3csc(C)n3)CC2)cc1
CC1(C)Cc2c(sc3nc(N/N=C/c4ccccc4)[nH]c(=O)c23)CO1
COc1cccc(OCCN2CCN(c3ncnc4c3cnn4-c3ccccc3)CC2)c1
c1ccc(CSc2ccc(-c3ccco3)nn2)cc1
Cc1cc(C(=O)OCC(=O)NCc2ccccc2Cl)c(C)o1
O=C(NCc1ccccc1)N(Cc1nc2ccccc2c(=O)[nH]1)C1CCCC1
CCN1CCN(C(=O)c2ccc(-c3nc4ccccc4s3)s2)CC1
COc1cccc(CN(C)CC(=O)Nc2c(C)cccc2C(C)C)c1
O=C(NCCCN1CCOCC1)c1ccc(N2CCOCC2)c([N+](=O)[O-])c1

A stretch of the results above:
Potency, inactive:
O=C(NCc1ccccc1)N(Cc1nc2ccccc2c(=O)[nH]1)C1CCCC1
CCN1CCN(C(=O)c2ccc(-c3nc4ccccc4s3)s2)CC1

Next part.

Potency, active:
Cc1ccccc1NC(=S)N1CCN(c2ccccc2C)CC1 2.82 µM
C/C(CC(=O)Nc1ccc(Cl)cc1C(F)(F)F)=N\NC(N)=S 12.6 µM
CC(Oc1ccc(Cl)cc1)C(=O)Nc1nccs1 (stereo not drawn) 14.1 µM
COc1ccc(C(=O)NCCC2=CCCCC2)cc1 12.6 µM
O=C(O)c1ccccc1SC1CC(=O)N(c2ccccc2)C1=O (stereo not drawn) 12.6 µM
CCOC(=O)/C(O)=C/c1ncc(C(F)(F)F)cc1Cl 8.91 µM
CCN(CC(=O)Nc1ccc2c(c1)OC(F)(F)O2)Cc1nc2ccccc2c(=O)[nH]1 10 µM

Activity change, negative = inhibition, inactive:
CCN(CC)[C@@H](C)CN1c2ccccc2Sc2ccccc21 -0.159% [at 2.98 µM]
